Construct, isoform or probe ends are uncertain for at least one entry.
Columns and labels:
[1] = molecular target: Pax3 (GST fusion or 6xHis) (UniProt P24610); assay: EMSA; conditions: 25 C; purified recombinant protein; protein details: GST-Pax3 or 6xHis-Pax3, bacterially expressed; label: 32P
FKHR (FOXO1) = FKHR (FOXO1) (UniProt Q12778); assay: SELEX; conditions: affinity rank FBS1>FBS2>FBS3; protein form not stated; purified recombinant protein

By UniProt entry, the sequences of proteins in these tests, tags left out. Where a name states a change or a piece, a line headed by the entry shows the natural chain unless it says otherwise.
UniProt P24610: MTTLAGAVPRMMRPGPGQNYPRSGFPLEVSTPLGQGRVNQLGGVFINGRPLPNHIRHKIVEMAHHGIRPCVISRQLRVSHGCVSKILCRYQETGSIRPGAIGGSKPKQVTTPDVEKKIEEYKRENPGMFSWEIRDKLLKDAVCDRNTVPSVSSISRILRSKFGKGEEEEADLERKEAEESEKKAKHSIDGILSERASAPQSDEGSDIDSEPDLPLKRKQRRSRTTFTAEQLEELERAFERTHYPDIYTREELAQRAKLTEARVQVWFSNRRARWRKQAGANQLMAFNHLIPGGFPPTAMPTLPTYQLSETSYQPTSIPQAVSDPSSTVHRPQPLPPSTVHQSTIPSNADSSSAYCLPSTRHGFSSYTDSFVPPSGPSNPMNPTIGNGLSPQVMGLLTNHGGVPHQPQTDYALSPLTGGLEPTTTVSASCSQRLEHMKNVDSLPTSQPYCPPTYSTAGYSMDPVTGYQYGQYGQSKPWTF
UniProt Q12778: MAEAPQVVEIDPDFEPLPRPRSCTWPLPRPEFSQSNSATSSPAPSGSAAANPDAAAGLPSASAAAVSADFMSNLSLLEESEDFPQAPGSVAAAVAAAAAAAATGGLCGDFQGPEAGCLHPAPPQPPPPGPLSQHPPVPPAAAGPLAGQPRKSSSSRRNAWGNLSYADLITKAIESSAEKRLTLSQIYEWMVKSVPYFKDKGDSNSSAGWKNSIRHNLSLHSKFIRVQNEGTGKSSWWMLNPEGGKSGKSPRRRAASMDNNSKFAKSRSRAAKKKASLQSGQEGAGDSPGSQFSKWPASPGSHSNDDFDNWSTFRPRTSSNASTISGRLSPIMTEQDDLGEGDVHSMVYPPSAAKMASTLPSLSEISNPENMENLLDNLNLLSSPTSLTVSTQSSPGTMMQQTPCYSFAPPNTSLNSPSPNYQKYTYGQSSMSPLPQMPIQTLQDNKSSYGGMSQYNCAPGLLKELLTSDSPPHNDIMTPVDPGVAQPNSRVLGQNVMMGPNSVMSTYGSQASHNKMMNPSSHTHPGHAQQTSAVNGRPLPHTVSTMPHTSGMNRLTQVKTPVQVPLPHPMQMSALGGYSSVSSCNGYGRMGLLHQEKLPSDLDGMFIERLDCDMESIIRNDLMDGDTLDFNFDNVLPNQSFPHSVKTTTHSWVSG

Row | Sequence | binding result [1] | selection result (FKHR (FOXO1))
1 | AAGCTTTGTAGAGTAATCATGTATTCCAAACTCAGGCTTACATTTGAATGTTGGCTACATATGTATGAGTTTTCAACTTCCAGGAGAAAACGTCTCTTTAAAAGAGAACAACCAAAAGCTAACAGAAATACAAGTGTGACATTGGCCTTAGTTCGACCAAGAAGCAATTCATCTTGTTTCTTCCTTTGTGGTATACAGATAAGAAAAATAAAATCACTACAACGAAGCAAAATCTCTTCAGCGTCTCTAATACATCTTCCAAATCAGTGTGTCTGACCTTTTCTTAAGACTTTAACCATCACAAGGAAACCAGTGGGGAGGGAGTCATGTGCTGCCTAGTAGTTAAAGGGCAGGAGAATTCACTGGTGTGAGAAGGGATTAGTGAGAGCTGGAAGAGAGGACCAGCCCCTCCCAGTGTGAGGAATCTGGCTTGGGATTTACTGTCTGGCAGAAAATCTCTTCGGGCAATTAACAGCT (double strand) [Trp-1 (1) promoter region, one Pax3 site] | binds | 
2 | AAGCTTTGTAGAGTAATCATGTATTCCAAACTCAGGCTTACATTTGAATGTTGGCTACATATGTATGAGTTTTCAACTTCCAGGAGAAAACGTCTCTTTAAAAGAGAACAACCAAAAGCTAACAGAAATACAAGTGTGACATTGGCCTTAGTTCGACCAAGAAGCAATTCATCTTGTTTCTTCCTTTGTGGTATACAGATAAGAAAAATAAAATCACTACAACGAAGCAAAATCTCTTCAGCGTCTCTAATACATCTTCCAAATCAGTGTGTCTGACCTTTTCTTAAGACTTTAACCATCACAAGGAAACCAGTGGGGAGGGAGTCATGTGCTGCCTAGTAGTTAAAGGGCAGGAGAATTCACTGGTGTGAGAAGGGATTAGTGAGAGCTGGAAGAGAGGACCAGCCCCTCCCAGTGTGAGGAATCTGGCTTGGGATTTACTGTCTGGCAGAAAATCTCTTCGGGCAATTAACAGCT (double strand) [Trp-1 (2) promoter region, two Pax3 sites] | binds | 
3 | ATCCAGTGACGATTAGCACCGTCACGCTTAGATATG / TCGACATATCAAAGCGTGACGGTGCTAATCGTCACTG [1x Pax3 oligo] | binds | 
4 | GTAAACAACAACATGTTGAC (double strand) [FBS1] |  | selected
5 | TCTACCTAAATTCCCTGCTGAGGAGCTCTCAGGGGGGTTTCCTCCAGCTCCCTCCGGATTTGTCTGCCCAGTTGGAGGTTTGATCTGCCTTATCCCTCCTTCCCACAGCGCACAGGTAAAAAAAGAAAATGAGCTCAGAGAGGTGCCATCTTTTGCCCGAAGTCACACAGCGAATGTCCACGGATTGGAGGGCAGTGGTGGAATTCCTGGCGGCCCTTGGACGCCCATTTGTCTGCCCGCTTCTGATACCCGGGTTCGGAGAATAGGCCTCTAACAAGCGGCCCATTAGAAGGAATTGTCACTCCTCCGGGAGTGAGGTTGTCCCATTAGGGCGAATTGTCATTCCTCCTGGAGCGAGGTTGTCCTGCTCCGCGAAGGCTGAGTGCCGGGCCGAGAGCAATTAACGCGGCTCCGGCGCGGGCAGCCGCCTCTGCCCCGGGCAGCGGGGGCGGGGCGCCCGGCGCGGCTGGAGCCGGTCACCCGGCGCAGCCCCTTCCCCCGGAGCCCGCCTTTCATCTCCCCGCGCCTGGCGCCTACCCGCAGCCCTGGCCCGTCTACAGCCTTCTCTGCCCCTCCCCCTGCCCC (double strand) [Msx2 promoter region] | binds | 

Source: US20080248467
